Measured values taken from PubChem BioAssay AID504467 (National Center for Advancing Translational Sciences (NCATS), 2011).
The whole screen tested about 330,000 compounds, of which about 7,700 (2.3%) were called active. The inconclusive results got no clear call from the source; some entries with a clear call stand among them for comparison. Calls follow the shape of the dose curve; as a rule, active = well fitted inhibition curve with a large enough effect; inconclusive = small, poorly fitted or top-dose-only effect, or effect the other way; inactive = flat fitted curve, though single readings scatter. Potencies of inconclusive entries are doubtful fits and often do not repeat.

Assay: qHTS screen for small molecules that inhibit ELG1-dependent DNA repair in human embryonic kidney (HEK293T) cells expressing luciferase-tagged ELG1; also: nearly all actives have a fitted effect of over 55% in size
Details: HEK293T ELG1-luciferase reporter, luminescence, 16 h, DNA damage induced by 5-fluorouridine; series mostly up to 46.1 µM
In short: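 Quantitative HTS, concentration-response format. 2,000 cells/well co-treated with 5-fluorouridine and compound, 16 hr in 5% CO2 at 37 °C; ONE-Glo luminescence read after 30 min.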
Potency is read from the fitted curve at half-maximal effect.

SMILES | Potency
Cc1cc(C)c2c3c(sc2n1)C1(CCSCC1)C(C#N)=C(N)O3 | inconclusive: 23.1 µM [inhibitor, single point]
CCOc1ccccc1CN1CCNC(=O)C1CC(=O)NCc1ccccn1 (configuration not stated) | inactive
COc1ccc(NC(=O)c2ccc(S(=O)(=O)N3CC(C)CC(C)C3)cc2)cc1S(N)(=O)=O (configuration not stated) | inactive
COc1ccccc1NC(=O)COc1ccccc1C(=O)Nc1ccccc1 | inconclusive: 29.1 µM [inhibitor, single point]
Cc1ccccc1-c1cc(C(=O)NCc2ccc(OC(F)(F)F)cc2)nn1CC1CC(c2cccc([N+](=O)[O-])c2)=NO1 (configuration not stated) | inconclusive: 18.3 µM [inhibitor, partial curve, poor fit]
COc1ccc(Br)cc1CNC(=O)CCc1nc(-c2ccccc2F)no1 | inconclusive: 25.9 µM [inhibitor, single point]
COc1ccc(NC(=O)c2ccccc2F)cc1Cl | inconclusive: 5.8 µM [activator, partial curve]
Cc1cccc(NC(=O)CNC(=O)CCNC(=O)c2ccc(C(C)(C)C)cc2)c1C | inconclusive: 35.5 µM [inhibitor, single point]
O=c1c2sccc2nc(SCc2ccc([N+](=O)[O-])cc2)n1Cc1ccccn1 | inconclusive: 32.6 µM [inhibitor, single point]
C[C@H](CO)N1C[C@H](C)[C@@H](CN(C)Cc2ccc(Cl)c(Cl)c2)Oc2ccc(NC(=O)Cn3cnnn3)cc2C1=O | inactive
CCCOc1ccc(-c2nc(-c3ccc([N+](=O)[O-])cc3)cs2)cc1 | inactive
Cc1ccc(S(=O)(=O)N2CCOC2C(Cl)(Cl)Cl)cc1 (configuration not stated) | inactive
Cc1nc(Cl)c(Cl)n1CCOc1ccccc1 | inactive
O=C(N/N=C/c1cccnc1)c1cc(-c2cccs2)nc2ccccc12 | inconclusive: 25.9 µM [inhibitor, partial curve]
CN(C)CCN(Cc1cccs1)c1ccccn1 | inactive
FC(F)(F)Oc1ccc(Nc2nc3ccccc3o2)cc1 | inconclusive: 9.2 µM [activator, partial curve]
CCCCCCc1cc2cc(C(=O)Nc3cccc(OC)c3)c(=O)oc2cc1O | inconclusive: 1.03 µM [inhibitor, full curve]
CCOC(=O)c1snc(C(=O)NC2CCCCC2)c1N | inconclusive: 20.6 µM [activator, partial curve]
O=C(NCc1ccccc1CN1CCCC1)C1CCN(S(=O)(=O)c2ccc(F)c(F)c2)CC1 | inactive
CC(=O)NCCN1C(=O)S/C(=C\c2cccs2)C1=O | inconclusive: 20.6 µM [activator, single point]
CCOC(=O)Nc1cccc2ccccc12 | inactive
COc1ccccc1NC(=O)CSc1nnnn1Cc1ccccc1 | inconclusive: 32.6 µM [activator, partial curve, poor fit]
CC(=O)Nc1cccc(C(=O)NNC(=O)c2n[nH]c(=O)c3ccccc23)c1 | inactive
Cc1ccc2[nH]c(-c3ccccc3)c(CN3CCOCC3)c(=O)c2c1 | inconclusive: 25.9 µM [activator, single point]

Quoted from above for reference:
SMILES | Potency
Cc1nc(Cl)c(Cl)n1CCOc1ccccc1 | inactive
O=C(N/N=C/c1cccnc1)c1cc(-c2cccs2)nc2ccccc12 | inconclusive: 25.9 µM [inhibitor, partial curve]
CN(C)CCN(Cc1cccs1)c1ccccn1 | inactive
FC(F)(F)Oc1ccc(Nc2nc3ccccc3o2)cc1 | inconclusive: 9.2 µM [activator, partial curve]

Next results follow.

SMILES | Potency
C=CCSc1ncc(-c2ccccc2)cn1 | inconclusive: 29.1 µM [activator, single point]
C=CCn1cc(C(=O)OC)c(=O)c2cc(S(=O)(=O)N(CC)CC)ccc21 | inactive
Cc1nc(-c2ccccc2)sc1C(=O)/C=C/c1ccc(Cl)cc1 | inactive
O=c1cc(CO)oc(CN2CCN(CCO)CC2)c1O | inactive
NC1=NC(=O)/C(=C\c2ccco2)S1 | inactive
O=C(NCCS(=O)(=O)N1CCN(c2ccc(F)cc2)CC1)c1ccc2c(c1)OCO2 | inconclusive: 23.1 µM [inhibitor, single point]
COc1ccc(C(=O)Cn2cnc3ccc(Cl)cc3c2=O)cc1F | inactive
Cc1ccc(OCC(=O)NNC(=S)NC(=O)C2CC2)c(C)c1 | inconclusive: 23.1 µM [inhibitor, partial curve, poor fit]
COc1ccc(-n2nc3c(N4CCC(C(=O)N5CCC(C)CC5)CC4)nnc(C)c3c2C)cc1 | inconclusive: 18.3 µM [inhibitor, partial curve]
O=C(O)c1cccc(NC(=O)C23CC4CC(C2)CC(n2cnc(Cl)n2)(C4)C3)c1 | inactive
COc1cc(NC(=O)CSc2nnnn2C2CCCC2)cc(OC)c1 | inactive
CC(C)CN1C(=O)c2ccc(NC(=O)c3cccs3)cc2C1=O | inconclusive: 32.6 µM [inhibitor, single point]
CC(C)(C)OC(=O)NCC12C=CC(O1)C1C(=O)N(Cc3ccccc3)C(=O)C12 (configuration not stated) | active: 23.1 µM
Cc1ccc(C(=O)N2CC=C(c3ccccc3)CC2)s1 | inconclusive: 29.1 µM [activator, single point]
CCOc1ccc(Nc2nc3ccccc3n3cnnc23)cc1 | inconclusive: 16.4 µM [inhibitor, partial curve]
Cc1cc(-c2csc(N)n2)c(C)n1-c1ccccc1 | inconclusive: 18.4 µM [activator, single point]
O=C(Nc1ccccc1NC(=O)c1c(F)c(F)c(F)c(F)c1F)c1c(F)c(F)c(F)c(F)c1F | inactive
CCOC(=O)c1c(C)[nH]c(C(=O)COC(=O)c2ccc(O)cc2O)c1C | inconclusive: 16.4 µM [activator, partial curve, poor fit]
O=C(OCC#CCSc1nnc(-c2cccc3ccccc23)o1)c1cccc2[nH]ccc12 | inactive
COc1ccc(C(=O)CSc2nc(N)nc(SC)c2C#N)cc1 | inconclusive: 18.4 µM [activator, single point]
COc1ccccc1Cn1nnc2c(=O)[nH]c(C3CCN(C(=O)c4ccc(F)cc4)CC3)nc21 | inconclusive: 29.1 µM [inhibitor, single point]
CCN(CC)S(=O)(=O)c1ccc(N2CCCC2)c(NC(=O)c2ccccc2OC)c1 | inconclusive: 32.6 µM [inhibitor, single point]
N#C/C(=C\c1ccc[nH]1)C(=O)N1CCCCC1 | inconclusive: 14.6 µM [activator, partial curve, poor fit]
